This note sets out measurements from publication doi:10.1101/573675.

The exact form of at least one protein or probe is not confirmed. No signal at the amounts used counts as a negative.

In this series the test system is NaERF2-like (Nicotiana attenuata). Description: EMSA. To be noted: 300 ng protein, 30 ng labeled probe. (A gel shift assay detects complexes by their altered migration in electrophoresis.)

For the sequence “TAGATTAATTAATTCTACT (double strand) [EM13 mutant]”, the binding result was “no binding”. With “TAGATTATCTAATTCTACT (double strand) [EM13]” the entry was “binds”.
